Data published in the supplement of paper PMC3334620.
In all, about 33,000 sequences were measured (“E-score (-0.5 to 0.5)”: median about -0.0014, highest 2% from about 0.25 on). The list shows a part of the results.

These sequences were tested against T1, Cad1 (UniProt P24813) (assay: PBM E-score (8-mer binding enrichment) (E-score (-0.5 to 0.5)); higher = stronger / more preferred TF binding). Conditions: protein concentration: 100 nM; construct: GST-full length.
T1 sequence: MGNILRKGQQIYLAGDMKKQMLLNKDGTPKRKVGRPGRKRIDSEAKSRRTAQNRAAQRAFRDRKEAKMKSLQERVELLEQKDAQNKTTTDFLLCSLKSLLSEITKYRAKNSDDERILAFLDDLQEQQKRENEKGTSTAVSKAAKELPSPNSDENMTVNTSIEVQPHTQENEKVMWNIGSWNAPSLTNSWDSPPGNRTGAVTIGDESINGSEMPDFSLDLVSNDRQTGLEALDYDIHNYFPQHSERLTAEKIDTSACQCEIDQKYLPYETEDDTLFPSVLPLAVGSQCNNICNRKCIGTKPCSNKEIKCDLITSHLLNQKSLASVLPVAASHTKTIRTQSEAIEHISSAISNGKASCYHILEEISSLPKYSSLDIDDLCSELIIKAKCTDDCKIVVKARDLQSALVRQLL
How it was run: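 PURExpress in vitro transcription/translation supplied GST-tagged yeast transcription factors, either full-length or DNA-binding domain. Applied at about 100-200 nM to universal all-10-mer Agilent arrays double-stranded by primer extension, the bound protein was detected with fluorescent anti-GST. E-scores, modified Wilcoxon-Mann-Whitney statistics, were given by the Universal PBM Analysis Suite to ungapped eight-base words pooled with their reverse complements after masliner normalisation.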

Row | Sequence | PBM E-score
1 | ACAAGCCG | -0.08
2 | GAACACGA | 0.143
3 | GGTTCAAC | 0.0424
4 | AAGATAGT | -0.00871
5 | ATAGAGTA | -0.0847
6 | TCGACACA | 0.164
7 | GGTGCGAA | 0.0553
8 | CACTACTG | -0.0387
9 | AATAACAA | 0.143
10 | GAAGGCCA | -0.207
11 | CCAAGCCA | -0.0621
12 | AAGAAAAG | 0.0936
13 | TCGTACAA | 0.0306
14 | ACGCTTTC | -0.0918
15 | CTGGCATC | -0.203
16 | AGGGCCTA | -0.141
17 | AATGTGCT | 0.13
18 | TCCGGTCA | 0.0639
19 | AATCCGCA | 0.116
20 | CTATGGTC | -0.0374
21 | CTGGCGTA | -0.213
22 | AAGGTATC | -0.112
23 | CTGCCCCA | -0.0143
24 | ATCGGGTG | 0.164
25 | ATACACGC | 0.0792

Row | Sequence | PBM E-score
26 | AACACAAT | 0.152
27 | ATTGTACG | 0.00568
28 | GTCCAGTA | -0.0673
29 | GCTATGAA | 0.0731
30 | GAAACTAA | 0.0886
31 | AAGGGCCA | -0.0941
32 | CGCGCAAA | 0.227
33 | ACTCCTAA | -0.126
34 | ATAACATA | 0.174
35 | ACTGCGTA | -0.0751
36 | CGCCCGAG | 0.202
37 | CTGGGTAA | 0.0587
38 | TCCACTAA | 0.14
39 | AGCGTCGA | 0.2
40 | CAAACAGC | 0.0166
41 | CGACGGTC | -0.223
42 | GGTTGGAC | -0.182
43 | AAGTGCTA | -0.257
44 | AGCTTTCA | -0.0845
45 | ACCCCGAT | 0.0143
46 | AATGGCCA | -0.019
47 | GCTGCATA | 0.197
48 | GATCATGA | 0.026
49 | CTCATCAC | -0.0666
50 | TGGCTACA | -0.092

Row | Sequence | PBM E-score
51 | CAAACAAA | 0.105
52 | AAGGGAGA | -0.319
53 | CACCTTGC | 0.054
54 | GGTTGAAA | -0.0335
55 | AAGTGTAC | 0.0601
56 | GTGATTGA | 0.0929
57 | CGCAAACC | 0.111
58 | AGGAGTTC | -0.189
59 | AACTTCAG | 0.0295
60 | ACCTGCTG | 0.11
61 | AAGGAAGA | -0.172
62 | AAACCCGA | 0.172
63 | AGGCATGC | 0.0717
64 | CCCATGTA | -0.002
65 | CGCGAGAC | 0.04
66 | TAGTGTAA | 0.13
67 | TATGCCCA | -0.124
68 | AAATGCAC | -0.0236
69 | ATCAAGTG | 0.0499
70 | GAGATAGA | -0.0537
71 | TCCATGGA | 0.0715
72 | GGCCTCTA | -0.191
73 | CCATATTA | 0.148
74 | CATTGGAA | 0.0544
75 | ACCATCAG | -0.00772

Row | Sequence | PBM E-score
76 | ACTTCACC | 0.0478
77 | AGCTTATA | 0.0356
78 | CCCTGAGC | 0.0625
79 | ACTATAGG | -0.161
80 | CGGGGGAC | -0.376
81 | CAAAGTAG | -0.00251
82 | AATCTCCA | -0.079
83 | ACGGTGGA | -0.168
84 | GAGCCCAC | -0.1
85 | CCTGAACA | 0.00572
86 | CCTAAGTC | -0.17
87 | AGTGAAAT | -0.00397
88 | AGGCAGAC | -0.202
89 | GACTTCTA | -0.174
90 | ACTCGACT | -0.153
91 | GGGCGTAA | -0.12
92 | CTGGCCTC | -0.171
93 | CCTCTAAG | -0.191
94 | ATTACAGA | 0.152
95 | AAGAAGTG | 0.0756
96 | ATACGTAC | -0.0354
97 | CGTTCATC | 0.194
98 | CAAGGTAC | -0.0491
99 | CATGTCTC | -0.00519
100 | GGTGGCAA | -0.0998

Row | Sequence | PBM E-score
101 | AGAGTTGG | -0.0857
102 | CAACGTAA | -0.119
103 | ATAATTGC | 0.0171
104 | CGATAAGA | 0.14
105 | CGTCTGAG | 0.0617
106 | CTACTGAA | -0.0466
107 | TACTTCAA | 0.08
108 | CGGGCAAG | 0.0794
109 | GTCGGGAA | -0.0156
110 | CCCCCGTA | -0.359
111 | CCTACCTC | -0.173
112 | CTATATTA | 0.241
113 | ATGACCCA | 0.053
114 | CCCATAGC | -0.196
115 | CCAAATTC | 0.1
116 | CCCTGGAG | -0.252
117 | ATTGTAGG | 0.139
118 | AGGGGACA | -0.0975
119 | AGGCTTCA | -0.235
120 | ATGTTCCA | 0.167
121 | CCTAGAAG | -0.258
122 | CTGAATTC | -0.118
123 | ACTCTGGA | 0.0695
124 | GCTACCAA | -0.131
125 | GCCGCGCC | -0.0221

Row | Sequence | PBM E-score
126 | AGATAGTG | 0.155
127 | ACTGGAGG | 0.0173
128 | GCCTCGAA | 0.214
129 | TAGGCCTA | 0.0698
130 | GCGTTGCA | 0.0261
131 | AAAGCCTG | -0.173
132 | ATAGGGAC | -0.0945
133 | CTAAACCA | -0.00096
134 | ATATCATC | 0.117
135 | ACTGCGCT | 0.0812
136 | TCGTACCA | 0.116
137 | ACGGATTA | 0.0793
138 | AATGTGAA | 0.194
139 | CCAGTCTC | -0.286
140 | AACCTCAC | -0.112
141 | CCACCACG | -0.00489
142 | GCCAAGCC | -0.167
143 | AGAATTTA | 0.0084
144 | TCGTTTAA | 0.182
145 | AATGATGA | 0.0927
146 | CTGGGATA | -0.0818
147 | CCAGGGGA | -0.337
148 | CTTACCGA | 0.0852
149 | AAGCATGA | 0.00455
150 | TCGCGACA | 0.131

Given in CSV form: part of the list above
Row,Sequence,PBM E-score
98,CAAGGTAC,-0.0491
99,CATGTCTC,-0.00519
100,GGTGGCAA,-0.0998
101,AGAGTTGG,-0.0857
102,CAACGTAA,-0.119
103,ATAATTGC,0.0171
104,CGATAAGA,0.14
105,CGTCTGAG,0.0617
106,CTACTGAA,-0.0466
107,TACTTCAA,0.08
108,CGGGCAAG,0.0794
109,GTCGGGAA,-0.0156
110,CCCCCGTA,-0.359
111,CCTACCTC,-0.173
112,CTATATTA,0.241
113,ATGACCCA,0.053
114,CCCATAGC,-0.196
115,CCAAATTC,0.1
116,CCCTGGAG,-0.252
117,ATTGTAGG,0.139
118,AGGGGACA,-0.0975
119,AGGCTTCA,-0.235
120,ATGTTCCA,0.167
121,CCTAGAAG,-0.258
122,CTGAATTC,-0.118
123,ACTCTGGA,0.0695
124,GCTACCAA,-0.131
125,GCCGCGCC,-0.0221
126,AGATAGTG,0.155
127,ACTGGAGG,0.0173
128,GCCTCGAA,0.214
129,TAGGCCTA,0.0698
130,GCGTTGCA,0.0261
131,AAAGCCTG,-0.173
132,ATAGGGAC,-0.0945
133,CTAAACCA,-0.00096
134,ATATCATC,0.117
135,ACTGCGCT,0.0812
136,TCGTACCA,0.116
137,ACGGATTA,0.0793
138,AATGTGAA,0.194
139,CCAGTCTC,-0.286
140,AACCTCAC,-0.112
141,CCACCACG,-0.00489
142,GCCAAGCC,-0.167
143,AGAATTTA,0.0084
144,TCGTTTAA,0.182
145,AATGATGA,0.0927
146,CTGGGATA,-0.0818
147,CCAGGGGA,-0.337
148,CTTACCGA,0.0852
149,AAGCATGA,0.00455

(next part)

Row | Sequence | PBM E-score
151 | TCGCTCAA | 0.12
152 | TCGCAAAA | 0.0718
153 | GGCGATAC | 0.00689
154 | GATACGCA | 0.0684
155 | GGCAAGAA | 0.0127
156 | GGGGCACA | -0.224
157 | GAGCAGGA | -0.127
158 | ATTCATGC | 0.0369
159 | GTTCGCTA | -0.00037
160 | ACCCTGAA | 0.00194
161 | AGCAACGA | 0.0529
162 | GATCAACC | -0.141
163 | TAAGAACA | 0.275
164 | ACACAGTG | 0.0512
165 | GTTCTTTA | 0.111
166 | AAGGGTGG | -0.126
167 | ATTGAGGA | -0.00258
168 | ACGTATGC | 0.00905
169 | TCTAATAA | 0.0758
170 | ATATATAG | 0.175
171 | AGCCACCA | -0.0565
172 | CTCCTGTC | -0.0338

Nos. 88–92 from above:
Row | Sequence | PBM E-score
88 | AGGCAGAC | -0.202
89 | GACTTCTA | -0.174
90 | ACTCGACT | -0.153
91 | GGGCGTAA | -0.12
92 | CTGGCCTC | -0.171
